According to publication PMC8034618:
These are yes or no findings as the source states them, for the method shown. In cells and extracts the contact can be indirect. For some assays here: Tags and fused reporters may be left off the sequences shown.

Amino acid sequences for entries named in this document (tags omitted).
UniProt Q71RC2: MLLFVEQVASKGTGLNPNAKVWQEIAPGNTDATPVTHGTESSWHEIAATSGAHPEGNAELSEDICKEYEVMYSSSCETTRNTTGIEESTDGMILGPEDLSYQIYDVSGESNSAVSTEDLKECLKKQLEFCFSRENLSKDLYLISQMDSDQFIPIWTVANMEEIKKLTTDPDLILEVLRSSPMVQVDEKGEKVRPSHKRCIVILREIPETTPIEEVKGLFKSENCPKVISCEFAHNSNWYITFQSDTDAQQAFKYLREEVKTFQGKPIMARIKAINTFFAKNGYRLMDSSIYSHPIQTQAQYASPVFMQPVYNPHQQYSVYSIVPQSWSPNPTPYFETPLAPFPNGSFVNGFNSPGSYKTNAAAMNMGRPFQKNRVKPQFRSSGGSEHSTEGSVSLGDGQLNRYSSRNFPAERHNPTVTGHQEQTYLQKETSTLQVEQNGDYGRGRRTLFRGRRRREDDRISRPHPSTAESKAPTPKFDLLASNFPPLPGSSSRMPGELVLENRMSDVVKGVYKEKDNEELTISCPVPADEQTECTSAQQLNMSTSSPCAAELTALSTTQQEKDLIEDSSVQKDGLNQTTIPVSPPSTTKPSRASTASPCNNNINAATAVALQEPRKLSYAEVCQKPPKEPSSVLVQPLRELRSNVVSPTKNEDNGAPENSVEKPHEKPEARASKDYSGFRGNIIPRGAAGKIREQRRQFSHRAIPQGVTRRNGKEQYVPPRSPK
UniProt Q92615: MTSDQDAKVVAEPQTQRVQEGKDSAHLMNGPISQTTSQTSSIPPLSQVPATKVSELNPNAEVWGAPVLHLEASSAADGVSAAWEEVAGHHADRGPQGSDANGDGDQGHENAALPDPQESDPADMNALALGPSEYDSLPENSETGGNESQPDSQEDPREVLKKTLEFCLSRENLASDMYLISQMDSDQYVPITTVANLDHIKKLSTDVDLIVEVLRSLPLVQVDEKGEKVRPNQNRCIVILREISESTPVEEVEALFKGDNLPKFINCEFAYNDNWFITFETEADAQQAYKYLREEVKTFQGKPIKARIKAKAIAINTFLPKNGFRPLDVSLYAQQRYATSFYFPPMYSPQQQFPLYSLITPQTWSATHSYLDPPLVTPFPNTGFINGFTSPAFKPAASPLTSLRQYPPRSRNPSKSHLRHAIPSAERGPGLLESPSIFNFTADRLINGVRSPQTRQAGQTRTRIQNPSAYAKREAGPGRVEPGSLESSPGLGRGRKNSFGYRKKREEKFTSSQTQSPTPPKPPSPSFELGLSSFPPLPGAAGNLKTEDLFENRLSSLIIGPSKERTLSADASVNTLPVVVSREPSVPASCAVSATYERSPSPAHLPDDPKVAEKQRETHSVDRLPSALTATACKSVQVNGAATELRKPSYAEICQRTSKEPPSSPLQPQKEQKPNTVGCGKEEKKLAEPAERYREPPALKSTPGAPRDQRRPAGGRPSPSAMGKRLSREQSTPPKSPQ
UniProt Q8N122: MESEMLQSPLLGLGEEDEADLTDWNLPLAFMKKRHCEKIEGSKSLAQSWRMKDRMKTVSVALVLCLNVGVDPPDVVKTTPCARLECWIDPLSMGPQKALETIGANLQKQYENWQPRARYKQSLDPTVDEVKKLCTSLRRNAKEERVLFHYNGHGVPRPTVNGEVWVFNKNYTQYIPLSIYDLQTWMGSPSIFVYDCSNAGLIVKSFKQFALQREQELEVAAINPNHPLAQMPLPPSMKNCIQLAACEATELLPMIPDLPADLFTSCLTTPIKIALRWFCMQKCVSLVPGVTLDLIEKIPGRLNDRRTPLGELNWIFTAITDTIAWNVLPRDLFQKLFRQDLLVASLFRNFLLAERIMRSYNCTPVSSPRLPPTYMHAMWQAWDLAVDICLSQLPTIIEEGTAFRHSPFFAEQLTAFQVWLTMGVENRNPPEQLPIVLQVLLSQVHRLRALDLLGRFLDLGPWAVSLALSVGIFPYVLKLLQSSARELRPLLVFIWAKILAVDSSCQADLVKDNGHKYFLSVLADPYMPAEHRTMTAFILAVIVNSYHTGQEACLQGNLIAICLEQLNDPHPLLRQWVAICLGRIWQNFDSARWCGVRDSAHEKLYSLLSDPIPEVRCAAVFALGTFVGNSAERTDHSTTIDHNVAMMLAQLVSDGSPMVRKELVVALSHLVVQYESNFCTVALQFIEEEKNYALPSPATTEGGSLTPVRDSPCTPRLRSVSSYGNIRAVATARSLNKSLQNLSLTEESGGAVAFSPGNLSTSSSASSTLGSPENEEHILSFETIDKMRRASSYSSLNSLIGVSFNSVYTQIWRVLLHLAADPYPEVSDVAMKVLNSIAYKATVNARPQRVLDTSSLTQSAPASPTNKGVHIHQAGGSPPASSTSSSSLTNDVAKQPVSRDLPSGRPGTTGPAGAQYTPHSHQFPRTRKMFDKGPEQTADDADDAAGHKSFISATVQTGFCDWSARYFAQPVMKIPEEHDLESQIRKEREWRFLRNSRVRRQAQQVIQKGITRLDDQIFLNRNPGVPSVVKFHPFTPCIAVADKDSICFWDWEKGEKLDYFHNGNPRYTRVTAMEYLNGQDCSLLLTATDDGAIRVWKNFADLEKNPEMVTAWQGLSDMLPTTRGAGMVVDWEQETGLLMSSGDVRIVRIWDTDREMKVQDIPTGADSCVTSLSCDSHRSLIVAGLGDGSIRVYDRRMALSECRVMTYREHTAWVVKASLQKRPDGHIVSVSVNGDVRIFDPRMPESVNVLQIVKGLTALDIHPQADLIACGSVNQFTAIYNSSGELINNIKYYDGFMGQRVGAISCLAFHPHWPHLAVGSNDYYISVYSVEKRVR

Legend:
Assay in all cases: co-IP; anti-FLAG immunoprecipitation of FLAG-tagged LARP proteins, mutants or fragments transiently expressed in HEK 293T; cells stimulated with complete growth media for 3 h (in Figure 5B with DMSO or 300 nM torin1); lysed in CHAPS-based extraction buffer with RNase A; western blot for endogenous RAPTOR, mTOR, PABP, eIF4E1, eIF4G1
[1] = target: T1, FLAG-tagged human wildtype La (human) (UniProt P05455)
T1 sequence: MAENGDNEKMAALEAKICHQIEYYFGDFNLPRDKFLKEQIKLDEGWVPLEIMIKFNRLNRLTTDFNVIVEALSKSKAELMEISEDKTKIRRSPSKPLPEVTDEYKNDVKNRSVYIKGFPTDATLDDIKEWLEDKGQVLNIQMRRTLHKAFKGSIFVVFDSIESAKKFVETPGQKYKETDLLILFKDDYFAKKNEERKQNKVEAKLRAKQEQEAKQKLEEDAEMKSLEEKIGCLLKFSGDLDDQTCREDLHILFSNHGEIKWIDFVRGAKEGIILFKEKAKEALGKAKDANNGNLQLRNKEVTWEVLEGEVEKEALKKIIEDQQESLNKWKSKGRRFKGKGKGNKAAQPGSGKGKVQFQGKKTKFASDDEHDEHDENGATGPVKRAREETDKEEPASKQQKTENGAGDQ

[2] = target: T2, human wildtype LARP6 (human) (UniProt Q9BRS8)
T2 sequence: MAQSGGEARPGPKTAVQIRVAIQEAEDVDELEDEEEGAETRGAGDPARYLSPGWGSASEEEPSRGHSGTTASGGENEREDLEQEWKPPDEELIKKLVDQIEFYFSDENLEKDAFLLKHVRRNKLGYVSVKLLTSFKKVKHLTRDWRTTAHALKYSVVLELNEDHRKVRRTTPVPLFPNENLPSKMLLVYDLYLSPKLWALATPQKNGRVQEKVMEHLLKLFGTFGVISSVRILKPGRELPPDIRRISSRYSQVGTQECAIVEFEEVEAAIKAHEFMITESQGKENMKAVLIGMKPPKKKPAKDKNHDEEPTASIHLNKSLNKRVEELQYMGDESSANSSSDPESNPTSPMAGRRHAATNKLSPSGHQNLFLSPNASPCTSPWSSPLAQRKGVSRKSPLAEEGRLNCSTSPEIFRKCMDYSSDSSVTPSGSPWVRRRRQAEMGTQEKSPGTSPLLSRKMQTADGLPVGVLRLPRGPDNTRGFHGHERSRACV

[3] = target: FLAG-tagged human wildtype LARP4 (human) (UniProt Q71RC2)
[4] = target: FLAG-tagged human wildtype LARP5 (human) (UniProt Q92615)
[5] = target: T3, human wildtype LARP7 (human) (UniProt Q4G0J3)
T3 sequence: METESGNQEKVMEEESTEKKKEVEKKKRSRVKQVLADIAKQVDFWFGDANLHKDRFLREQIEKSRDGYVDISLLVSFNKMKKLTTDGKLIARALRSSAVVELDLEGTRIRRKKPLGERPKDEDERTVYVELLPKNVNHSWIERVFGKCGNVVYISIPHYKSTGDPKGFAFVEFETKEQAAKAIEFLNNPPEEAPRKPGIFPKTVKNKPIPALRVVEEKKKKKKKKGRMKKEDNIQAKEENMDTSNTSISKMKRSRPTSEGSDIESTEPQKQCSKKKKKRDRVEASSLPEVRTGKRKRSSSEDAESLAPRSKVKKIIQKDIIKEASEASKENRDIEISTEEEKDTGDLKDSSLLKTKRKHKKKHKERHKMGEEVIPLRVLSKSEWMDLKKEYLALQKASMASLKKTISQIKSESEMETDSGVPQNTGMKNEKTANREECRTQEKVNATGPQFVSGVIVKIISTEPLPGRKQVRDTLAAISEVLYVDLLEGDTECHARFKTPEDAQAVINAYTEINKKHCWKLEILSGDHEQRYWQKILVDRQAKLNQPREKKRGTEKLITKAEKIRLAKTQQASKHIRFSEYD

binding [1]: no binding
binding [2]: no binding
binding [3]: no binding
binding [4]: no binding
binding [5]: no binding
Substance: regulatory associated protein of mTOR (RAPTOR), endogenous (from UniProt Q8N122 1-1335)
